At least one compound was matched to its structure with a doubt left.
Experiments:
Type in all cases: in vivo
[1] = test system: human male subjects having ED; test: Clinical trials in human male subjects having ED
Description: Subjects were 52 men aged 22-67 years, with ED of various causes. […] In all trials with these subjects, the following methods were applied successively for from a few days to 4 weeks: intracavernosal injection of 1.0 ml papaverine solution, 40 μγ/ml; […]; […]; topical application to the glans penis 0.08 to 0.1 ml, misoprostol gel 1000 μg/ml; intraurethral application of 0.08 to 0.1 ml misoprostol gel 1000 μg/ml; and topical application to the glans penis 0.1 ml. Gel of placebo.
In the tests using either the gel or cream containing about […] of misoprostol per 0.1 ml, the formulation was applied by the patients themselves using their finger and a few retroactive movements of the prepuce on the glans of penis until the ointment was completely absorbed. The intraurethral gel was instilled by the patients with help of a thin syringe and a lubricating medium (propylene glycol or glycerin) to facilitate insertion of the syringe.
In some patients with venous leak problems, a bandage tourniquet with a rubber band (or condom) on the base of the penis was applied 15-20 minutes after application of misoprostol. This method was particularly effective. […] In various subjects with ED due to one of several different causes, “pelvic exercises” were recommended (Kegel exercises) while the erection was developing. […] All tests were performed in the clinic without visual or any other type of stimulation.

[2] = test system: vessels of the glans penis; test: Vasodilatory action, into the corpus cavernosum versus topical
From the text: This is due to the differences in the mechanism of action on erectile function between misoprostol and other vasodilators (e.g. alprostadil): misoprostol applied topically can penetrate into the corpora cavernosa and can act on the smooth muscle fibers of the vessels, compared to other vasodilators. Further, its major site of action is on the vessels of the glans penis, and to a lesser extent, the prepuce.

[3] = Influence of pH, added compounds and time of application on misoprostol activity (Example 8)
[4] = misoprostol on the glans penis or the urethra

CCCCC(C)(O)C/C=C/[C@H]1[C@H](O)CC(=O)[C@@H]1CCCCCCC(=O)OC (mixture of isomers) [misoprostol, (11a 13E)-(±)-11,16-dihydroxy-16-methyl-9-oxoprost-13-en-1-oic acid methyl ester]
response to lower doses ([1]; 100-200 μg): several subjects responded satisfactorily
effect of a low dose in psychogenic impotence ([1]; 100-200 μg, erection sufficient for intercourse after sexual stimulation): sufficient to cause a sub-optimal erection
results compared with intracavernosal injection of alprostadil [1, 4]: approximately equal
results compared with intraurethral alprostadil and intracavernosal papaverine [1, 4]: clearly superior
vasodilation compared to alprostadil ([2]; each applied topically): greater vasodilation
vasodilatory action compared to alprostadil ([2]; each provided into the corpus cavernosum): less active
misoprostol activity in the presence of Polysorbate 80 ([3]; Polysorbate 80 present): significant reduction or/and neutralization
change in misoprostol activity as a function of the pH values of the various bases ([3]; in vivo): No significant change
